Cell number change and AC50 data for 16 compounds are collected here from PubChem BioAssay AID2685 (National Center for Advancing Translational Sciences (NCATS), 2010).

The nature of this assay: qHTS Assay for Lipid Storage Modulators in Drosophila S3 Cells.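 For Cell number change: cells counted by Cell Tracker Red CMTPX staining in the red channel.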 Conditions: BODIPY lipid droplet fluorescence, 18-24 h; for cell number change: measured here: cell count max response, cells fed with added oleic acid. Put shortly: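 Laser-scanning cytometry quantifies lipid droplet accumulation (500–530 nm total intensity; droplet/cell object ratio) in oleic acid-fed (400 uM added) Drosophila S3 cells treated with a concentration series. 20 uM Triacsin C defined 100% inhibition.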
(In qHTS, concentration-response curves come from the screen itself.)

Where [1] appears, read: measured here: lipid fluorescence (Fed channel) AC50, cells fed with added oleic acid.
Where [2] appears, read: measured here: cell number channel AC50, cells fed with added oleic acid.

The list shows a part of the results. The main result of the screen is listed elsewhere. These columns were measured beside it and carry no call. The list favours compounds with an active or inconclusive main result. Words in brackets tell the shape of the fitted curve; partial curves, single points and poor fits give uncertain potencies.

Broadly, the AC50 is the concentration giving half of the maximal activity seen. A low value points to activity at low concentration. Regarding `O=C(NCCCn1ccnc1)C(=O)NCC1OCCN1S(=O)(=O)c1ccc(F)cc1` (configuration not stated), the cell number change was 36.5%. For the same compound, the AC50 under setting [1] was 0.116 µM [falling, partial curve, poor fit].
Turning to `CN(CC(=O)Nc1ccc(Cl)cc1)C(=O)CCc1ccccc1`, the cell number change is -21.4%.
In the case of `COc1ccc(C(=O)NCc2csc(C(C)C)n2)cc1OC1CCN(C(C)=O)CC1`, the cell number change came out at 12.2%. Also, the AC50 under setting [1] is 14.6 µM [rising, partial curve, poor fit].
`CC(Oc1cccc(Cl)c1)C(=O)Nc1ccc(N2CCOCC2)cc1N1CCOCC1` (configuration not stated): the cell number change turned out to be 6.52%. Further, the AC50 under setting [2] is 2.06 µM [rising, partial curve]. Besides, under setting [1], the AC50 was 2.06 µM [rising, partial curve].
For `CC1CN(C(=O)Nc2ccc(F)cc2F)CC(C)O1` (configuration not stated), the cell number change was determined as 20.7%. In addition, the half-maximal activity concentration (AC50) under setting [1] is 4.11 µM [rising, full curve, poor fit].
With `COc1cccc(S(=O)(=O)Nc2ccc3c(c2)OCCO3)c1`, the cell number change is -3.16%.
On to `Cc1cc(C)n(CC(O)CN(c2ccccc2)S(=O)(=O)c2ccc3ccccc3c2)n1` (configuration not stated), for which the cell number change was -1.59%. Under setting [2], the AC50 is 0.92 µM [rising, partial curve, poor fit].
On to `COCc1cc(=O)n2[nH]c(C(F)(F)F)nc2n1`, for which the cell number change is -60.8%. Under setting [2], the AC50 is 3.66 µM [falling, full curve]. Further, the AC50 under setting [1] is 1.3 µM [falling, full curve, poor fit].
Consider `CCN(CC)CCNCC(O)(c1ccc(Cl)cc1)c1ccc(Cl)cc1`, for which the cell number change turned out to be 3.93%. Further, the AC50 under setting [1] was 1.64 µM [falling, partial curve, poor fit].
On to `CCOC(=O)C(CCC(=O)O)(CCC(C)C)c1csc(N)n1` (configuration not stated), for which the cell number change is -11.8%. Moreover, the AC50 under setting [2] was 6.51 µM [falling, single point].
Regarding `Cc1nn(C)c(C)c1CN(Cc1nc(CCC(C)C)no1)C(C)C`, the cell number change was -56.1%. Moreover, the AC50 under setting [2] was 4.11 µM [falling, full curve]. For the same compound, the AC50 under setting [1] is 5.17 µM [falling, full curve].
Consider `OC1CCN(Cc2cccc(Oc3ccccc3)c2)CC1`, for which the cell number change was determined as 9.75%. Also, under setting [2], the AC50 is 0.58 µM [rising, full curve, poor fit]. Further, the AC50 under setting [1] was 14.6 µM [rising, partial curve].
On to `CC1CCN(CC(=O)Nc2ccc3c(c2)OCO3)CC1`, for which the cell number change was -21.3%.
As for `O=C(CN1CCN(S(=O)(=O)c2ccc(Br)cc2)CC1)N/N=C/c1ccco1`, the AC50 is 4.61 µM [rising, single point] under setting [2] and 0.82 µM [falling, partial curve, poor fit] under setting [1].
For the compound `CC(C)[C@H](NC(=O)c1ccc(Cl)c([N+](=O)[O-])c1)C(=O)NCc1ccc(Cl)cc1Cl`, the cell number change is 12.1%. In addition, under setting [1], the AC50 is 29.1 µM [rising, partial curve, poor fit].
Turning to `CC(C)CCN(C(=O)c1csnn1)C(C(=O)NC1CCCC1)c1ccc(F)cc1` (configuration not stated), the cell number change was -26.9%.
